Data from publication PMC8342551.
Read-outs that look alike come from different tables or passages of the source. No constants are given. Whether binding was seen depends on the method and setting. Binding seen in cells or lysates may run through a third protein. A yes stands for co-enrichment or nearness to the bait. Other partners may have been found. For part of these data: No binding means not detected with the bait. Where a sequence is shown, tags or fusion partners need not be part of it.

T1: YPEL4-HA (UniProt Q65Z93)
T1 sequence: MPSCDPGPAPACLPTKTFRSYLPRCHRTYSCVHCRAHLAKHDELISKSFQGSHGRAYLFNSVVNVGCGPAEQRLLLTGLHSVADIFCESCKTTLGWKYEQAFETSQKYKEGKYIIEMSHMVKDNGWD

T2: FLAG-YPEL4 (UniProt Q65Z93)
T2 sequence: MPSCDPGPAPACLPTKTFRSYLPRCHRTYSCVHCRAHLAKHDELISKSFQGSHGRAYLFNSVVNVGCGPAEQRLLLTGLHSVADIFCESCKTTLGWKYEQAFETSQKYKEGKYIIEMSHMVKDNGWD

B1: Band 3 protein (protein, UniProt P04919 1-929)
chain: MGDMRDHEEVLEIPDRDSEEELENIIGQIAYRDLTIPVTEMQDPEALPTEQTATDYVPSSTSTPHPSSGQVYVELQELMMDQRNQELQWVEAAHWIGLEENLREDGVWGRPHLSYLTFWSLLELQKVFSKGTFLLGLAETSLAGVANHLLDCFIYEDQIRPQDREELLRALLLKRSHAEDLGNLEGVKPAVLTRSGGASEPLLPHQPSLETQLYCGQAEGGSEGPSTSGTLKIPPDSETTLVLVGRANFLEKPVLGFVRLKEAVPLEDLVLPEPVGFLLVLLGPEAPHVDYTQLGRAAATLMTERVFRITASMAHNREELLRSLESFLDCSLVLPPTDAPSEKALLNLVPVQKELLRRRYLPSPAKPDPNLYNTLDLNGGKGGPGDEDDPLRRTGRIFGGLIRDIRRRYPYYLSDITDALSPQVLAAVIFIYFAALSPAVTFGGLLGEKTRNLMGVSELLISTAVQGILFALLGAQPLLVLGFSGPLLVFEEAFFSFCESNNLEYIVGRAWIGFWLILLVMLVVAFEGSFLVQYISRYTQEIFSFLISLIFIYETFSKLIKIFQDYPLQQTYAPVVMKPKPQGPVPNTALFSLVLMAGTFLLAMTLRKFKNSTYFPGKLRRVIGDFGVPISILIMVLVDSFIKGTYTQKLSVPDGLKVSNSSARGWVIHPLGLYRLFPTWMMFASVLPALLVFILIFLESQITTLIVSKPERKMIKGSGFHLDLLLVVGMGGVAALFGMPWLSATTVRSVTHANALTVMGKASGPGAAAQIQEVKEQRISGLLVSVLVGLSILMEPILSRIPLAVLFGIFLYMGVTSLSGIQLFDRILLLFKPPKYHPDVPFVKRVKTWRMHLFTGIQIICLAVLWVVKSTPASLALPFVLILTVPLRRLILPLIFRELELQCLDGDDAKVTFDEENGLDEYDEVPMPV

Legend:
Test in all cases: affinity purification with mass spectrometry; Co-IPs cross-performed on lysates of spleen primary erythroid cells from recipients of FLAG-YPEL4 or YPEL4-HA transduced Ypel4-/- c-Kit+ cells (day 16); nano LC-MS with TMT quantification, tagged against control samples
[1] = target: T1, YPEL4-HA
[2] = target: T2, FLAG-YPEL4
[3] = target: T1, YPEL4-HA; remark: listed apart in the source
[4] = target: T2, FLAG-YPEL4; remark: listed apart in the source

Row | Molecule | binding [1] | binding [2] | binding [3] | binding [4]
1 | beta-tubulin | binds | binds | – | –
2 | alpha-tubulin | binds | binds | – | –
3 | B1 | – | – | no binding | no binding
